# Source: publication doi:10.1101/2024.12.30.630684
# Amino acid sequences for entries named in this document (tags omitted). Residues count along the entry.
# UniProt Q01149, residues 86-1125: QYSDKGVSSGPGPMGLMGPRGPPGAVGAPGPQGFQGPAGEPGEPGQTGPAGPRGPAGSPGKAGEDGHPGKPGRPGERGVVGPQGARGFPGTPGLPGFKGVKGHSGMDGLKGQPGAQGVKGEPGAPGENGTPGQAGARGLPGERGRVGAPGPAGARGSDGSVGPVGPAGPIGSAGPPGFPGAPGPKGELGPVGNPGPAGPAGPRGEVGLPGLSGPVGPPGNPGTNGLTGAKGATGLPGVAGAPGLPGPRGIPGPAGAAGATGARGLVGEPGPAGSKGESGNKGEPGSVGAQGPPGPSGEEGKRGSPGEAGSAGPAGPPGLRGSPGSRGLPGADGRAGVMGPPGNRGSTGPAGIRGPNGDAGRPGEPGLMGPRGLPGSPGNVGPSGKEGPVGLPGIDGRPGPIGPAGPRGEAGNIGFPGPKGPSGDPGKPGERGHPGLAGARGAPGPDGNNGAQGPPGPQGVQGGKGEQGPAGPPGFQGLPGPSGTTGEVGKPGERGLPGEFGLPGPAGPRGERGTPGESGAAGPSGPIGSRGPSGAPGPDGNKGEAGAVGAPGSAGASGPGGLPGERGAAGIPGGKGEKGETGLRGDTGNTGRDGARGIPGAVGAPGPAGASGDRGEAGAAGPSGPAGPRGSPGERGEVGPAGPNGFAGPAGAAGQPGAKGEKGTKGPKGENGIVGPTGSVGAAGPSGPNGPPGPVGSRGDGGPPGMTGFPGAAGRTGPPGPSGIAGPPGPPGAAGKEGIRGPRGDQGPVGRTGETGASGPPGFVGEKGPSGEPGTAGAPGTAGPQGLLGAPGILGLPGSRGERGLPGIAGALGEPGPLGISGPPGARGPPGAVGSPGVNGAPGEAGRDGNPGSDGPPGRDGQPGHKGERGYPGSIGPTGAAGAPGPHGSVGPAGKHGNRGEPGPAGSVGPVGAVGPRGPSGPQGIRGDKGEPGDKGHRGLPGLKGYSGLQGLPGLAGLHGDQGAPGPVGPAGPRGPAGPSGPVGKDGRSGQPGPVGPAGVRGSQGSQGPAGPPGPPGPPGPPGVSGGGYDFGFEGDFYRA
# UniProt O88207, residues 37-1838: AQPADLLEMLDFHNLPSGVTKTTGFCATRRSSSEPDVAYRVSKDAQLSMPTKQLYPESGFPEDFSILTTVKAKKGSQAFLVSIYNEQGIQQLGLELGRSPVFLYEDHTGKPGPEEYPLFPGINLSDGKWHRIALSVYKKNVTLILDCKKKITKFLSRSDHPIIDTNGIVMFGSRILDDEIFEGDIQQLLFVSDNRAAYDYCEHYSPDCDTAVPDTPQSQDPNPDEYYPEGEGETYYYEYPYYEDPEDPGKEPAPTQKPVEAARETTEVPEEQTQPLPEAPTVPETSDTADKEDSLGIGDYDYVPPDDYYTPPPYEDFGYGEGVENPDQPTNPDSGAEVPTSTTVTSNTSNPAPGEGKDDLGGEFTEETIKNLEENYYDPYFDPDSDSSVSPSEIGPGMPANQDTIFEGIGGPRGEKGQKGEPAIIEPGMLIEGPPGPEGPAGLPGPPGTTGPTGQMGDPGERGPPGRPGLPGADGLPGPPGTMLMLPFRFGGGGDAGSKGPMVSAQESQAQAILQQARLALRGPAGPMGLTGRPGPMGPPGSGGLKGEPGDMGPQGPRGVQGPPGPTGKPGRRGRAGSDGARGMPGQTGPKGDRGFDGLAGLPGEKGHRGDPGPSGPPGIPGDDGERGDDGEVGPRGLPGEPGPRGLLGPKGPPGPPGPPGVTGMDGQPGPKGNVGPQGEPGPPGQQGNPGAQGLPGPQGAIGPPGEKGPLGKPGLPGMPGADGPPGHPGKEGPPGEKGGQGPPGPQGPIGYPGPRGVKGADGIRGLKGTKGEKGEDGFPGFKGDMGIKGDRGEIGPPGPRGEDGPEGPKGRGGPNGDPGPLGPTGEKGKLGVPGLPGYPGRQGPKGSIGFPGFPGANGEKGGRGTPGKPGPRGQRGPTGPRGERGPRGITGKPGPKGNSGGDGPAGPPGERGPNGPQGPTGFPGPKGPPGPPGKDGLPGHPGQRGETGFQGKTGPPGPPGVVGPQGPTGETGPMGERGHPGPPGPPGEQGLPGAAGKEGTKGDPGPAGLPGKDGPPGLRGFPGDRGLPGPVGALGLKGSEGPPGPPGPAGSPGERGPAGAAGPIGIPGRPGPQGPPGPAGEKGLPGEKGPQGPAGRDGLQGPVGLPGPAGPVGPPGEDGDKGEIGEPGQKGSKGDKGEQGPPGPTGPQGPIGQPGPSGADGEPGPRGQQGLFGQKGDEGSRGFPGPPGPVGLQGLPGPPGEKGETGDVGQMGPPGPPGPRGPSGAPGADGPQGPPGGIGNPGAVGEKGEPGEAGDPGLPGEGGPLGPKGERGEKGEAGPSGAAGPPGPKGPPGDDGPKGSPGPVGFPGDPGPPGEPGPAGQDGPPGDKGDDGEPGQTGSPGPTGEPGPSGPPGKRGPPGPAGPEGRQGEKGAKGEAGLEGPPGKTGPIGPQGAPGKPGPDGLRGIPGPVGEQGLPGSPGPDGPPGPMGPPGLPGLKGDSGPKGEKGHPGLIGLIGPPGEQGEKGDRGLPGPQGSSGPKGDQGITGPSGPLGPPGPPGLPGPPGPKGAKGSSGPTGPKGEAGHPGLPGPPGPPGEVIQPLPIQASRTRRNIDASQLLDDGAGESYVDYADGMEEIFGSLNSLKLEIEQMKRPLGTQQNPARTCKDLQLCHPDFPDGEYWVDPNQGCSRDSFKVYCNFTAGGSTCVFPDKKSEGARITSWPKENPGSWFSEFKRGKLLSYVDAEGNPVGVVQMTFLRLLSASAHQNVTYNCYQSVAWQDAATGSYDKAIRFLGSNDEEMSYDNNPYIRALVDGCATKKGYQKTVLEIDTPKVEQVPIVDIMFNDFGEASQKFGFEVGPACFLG
# UniProt P09055, residues 21-798: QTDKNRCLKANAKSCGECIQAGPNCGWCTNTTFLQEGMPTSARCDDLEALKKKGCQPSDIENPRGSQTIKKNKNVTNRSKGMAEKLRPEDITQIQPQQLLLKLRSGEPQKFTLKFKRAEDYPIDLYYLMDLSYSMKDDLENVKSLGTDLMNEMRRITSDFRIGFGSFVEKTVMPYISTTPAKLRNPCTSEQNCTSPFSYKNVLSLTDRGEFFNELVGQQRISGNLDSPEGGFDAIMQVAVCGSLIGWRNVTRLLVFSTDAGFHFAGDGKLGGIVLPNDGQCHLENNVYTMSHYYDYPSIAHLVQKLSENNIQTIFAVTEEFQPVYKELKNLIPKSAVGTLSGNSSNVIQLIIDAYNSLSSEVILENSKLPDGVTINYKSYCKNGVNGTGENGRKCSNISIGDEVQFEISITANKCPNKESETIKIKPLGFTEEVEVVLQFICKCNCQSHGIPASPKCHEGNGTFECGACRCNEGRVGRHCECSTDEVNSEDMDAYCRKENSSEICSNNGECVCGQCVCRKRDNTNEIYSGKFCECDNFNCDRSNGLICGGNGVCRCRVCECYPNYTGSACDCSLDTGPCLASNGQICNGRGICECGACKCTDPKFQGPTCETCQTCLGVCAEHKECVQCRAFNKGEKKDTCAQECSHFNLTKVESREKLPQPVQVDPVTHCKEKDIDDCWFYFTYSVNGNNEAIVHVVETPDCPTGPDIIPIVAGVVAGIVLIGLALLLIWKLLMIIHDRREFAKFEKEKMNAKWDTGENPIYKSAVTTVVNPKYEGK
# No constants are given. Whether binding was seen depends on the method and setting. Binding seen in cells or lysates may run through a third protein. Some entries that bind do so weakly or less than the wild type.
# T1: secreted protein acidic and rich in cysteine (SPARC) (mouse (endogenous in mouse prefrontal cortex)) (UniProt P07214)
# T1 sequence: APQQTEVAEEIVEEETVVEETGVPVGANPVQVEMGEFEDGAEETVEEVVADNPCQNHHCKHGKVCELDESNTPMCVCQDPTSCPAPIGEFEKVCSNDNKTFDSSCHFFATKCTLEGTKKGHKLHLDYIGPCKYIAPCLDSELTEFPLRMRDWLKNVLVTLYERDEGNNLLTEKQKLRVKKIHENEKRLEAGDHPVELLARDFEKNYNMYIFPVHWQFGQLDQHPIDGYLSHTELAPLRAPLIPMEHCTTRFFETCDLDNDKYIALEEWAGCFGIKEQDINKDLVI
# B1: integrin b3 (ITGB3) (protein, UniProt O54890 26-787)
# chain: ESNICTTRGVNSCQQCLAVSPVCAWCSDETLSQGSPRCNLKENLLKDNCAPESIEFPVSEAQILEARPLSSKGSGSSAQITQVSPQRIALRLRPDDSKIFSLQVRQVEDYPVDIYYLMDLSFSMKDDLSSIQTLGTKLASQMRKLTSNLRIGFGAFVDKPVSPYMYISPPQAIKNPCYNMKNACLPMFGYKHVLTLTDQVSRFNEEVKKQSVSRNRDAPEGGFDAIMQATVCDEKIGWRNDASHLLVFTTDAKTHIALDGRLAGIVLPNDGHCHIGTDNHYSASTTMDYPSLGLMTEKLSQKNINLIFAVTENVVSLYQNYSELIPGTTVGVLSDDSSNVLQLIVDAYGKIRSKVELEVRDLPEELSLSFNATCLNNEVIPGLKSCVGLKIGDTVSFSIEAKVRGCPQEKEQSFTIKPVGFKDSLTVQVTFDCDCACQAFAQPSSPRCNNGNGTFECGVCRCDQGWLGSMCECSEEDYRPSQQEECSPKEGQPICSQRGECLCGQCVCHSSDFGKITGKYCECDDFSCVRYKGEMCSGHGQCNCGDCVCDSDWTGYYCNCTTRTDTCMSTNGLLCSGRGNCECGSCVCVQPGSYGDTCEKCPTCPDACSFKKECVECKKFNRGTLHEENTCSRYCRDDIEQVKELTDTGKNAVNCTYKNEDDCVVRFQYYEDTSGRAVLYVVEEPECPKGPDILVVLLSVMGAILLIGLATLLIWKLLITIHDRKEFAKFEEERARAKWDTANNPLYKEATSTFTNITYRGT
# Target: T1, secreted protein acidic and rich in cysteine (SPARC) (mouse (endogenous in mouse prefrontal cortex))
# Experiment: co-IP
row,Molecule,binding
1,COL1A2 (from UniProt Q01149 86-1125),binds
2,COL5A1 (from UniProt O88207 37-1838),binds
3,ITGB1 (from UniProt P09055 21-798),binds
4,B1,binds
